For part of these data: No signal at the amounts used counts as a negative. For part of these data: Weaker means in comparison with the reference protein, sequence or condition of that experiment. For part of these data: For at least one entry, the source does not settle the construct or the ends of the probe.
How the values were obtained:
ADD-1 = test: activity in cells; conditions: pGL3gamma3p800-E-boxmut not stimulated, Hep G2, protein in cells, protein details: expression vector, variant of PPARgamma3 E-box (LF-102, core printed), only the site is given
SREBP-1a (Mus musculus) = SREBP-1a (Mus musculus) (UniProt Q9WTN3); test: activity in cells; conditions: qualitatively similar to ADD-1, Hep G2, protein in cells, protein details: expression vector, only the site is given
ADD-1/SREBP-1 [1] = test: competition with a labelled probe; conditions: similar data with in vitro translated protein; protein translated in vitro; variant of PPARgamma3 E-box (LF-102, core printed)
SREBP-1a (ADD-1/SREBP-1) [2] = test: competition with a labelled probe; conditions: unable to compete at 10-100x; purified recombinant protein; protein details: baculovirus-produced, partially purified; variant of PPARgamma3 E-box (LF-102, core printed)
ADD-1/SREBP-1 [3] = test: EMSA; conditions: similar data with in vitro translated protein; protein translated in vitro; label: 32P (T4-PNK)
SREBP-1a (ADD-1/SREBP-1) [4] = test: EMSA; conditions: purified recombinant protein; protein details: baculovirus-produced, partially purified; label: 32P (T4-PNK)
[5] = system: PPARgamma2/RXRalpha heterodimer (Homo sapiens / Mus musculus); test: competition with a labelled probe; conditions: 10-200x cold competitor vs apoA-II J probe; less efficient than J site; protein translated in vitro; protein details: rabbit reticulocyte lysate (Promega)

Chains of the proteins cited; added tags and fusions are not shown. Lines headed by an entry give the natural chain unless they say otherwise; changes in a name come on top. Chains listed by the source or under a name are the forms on record and can include a tag or linker.
UniProt Q9WTN3: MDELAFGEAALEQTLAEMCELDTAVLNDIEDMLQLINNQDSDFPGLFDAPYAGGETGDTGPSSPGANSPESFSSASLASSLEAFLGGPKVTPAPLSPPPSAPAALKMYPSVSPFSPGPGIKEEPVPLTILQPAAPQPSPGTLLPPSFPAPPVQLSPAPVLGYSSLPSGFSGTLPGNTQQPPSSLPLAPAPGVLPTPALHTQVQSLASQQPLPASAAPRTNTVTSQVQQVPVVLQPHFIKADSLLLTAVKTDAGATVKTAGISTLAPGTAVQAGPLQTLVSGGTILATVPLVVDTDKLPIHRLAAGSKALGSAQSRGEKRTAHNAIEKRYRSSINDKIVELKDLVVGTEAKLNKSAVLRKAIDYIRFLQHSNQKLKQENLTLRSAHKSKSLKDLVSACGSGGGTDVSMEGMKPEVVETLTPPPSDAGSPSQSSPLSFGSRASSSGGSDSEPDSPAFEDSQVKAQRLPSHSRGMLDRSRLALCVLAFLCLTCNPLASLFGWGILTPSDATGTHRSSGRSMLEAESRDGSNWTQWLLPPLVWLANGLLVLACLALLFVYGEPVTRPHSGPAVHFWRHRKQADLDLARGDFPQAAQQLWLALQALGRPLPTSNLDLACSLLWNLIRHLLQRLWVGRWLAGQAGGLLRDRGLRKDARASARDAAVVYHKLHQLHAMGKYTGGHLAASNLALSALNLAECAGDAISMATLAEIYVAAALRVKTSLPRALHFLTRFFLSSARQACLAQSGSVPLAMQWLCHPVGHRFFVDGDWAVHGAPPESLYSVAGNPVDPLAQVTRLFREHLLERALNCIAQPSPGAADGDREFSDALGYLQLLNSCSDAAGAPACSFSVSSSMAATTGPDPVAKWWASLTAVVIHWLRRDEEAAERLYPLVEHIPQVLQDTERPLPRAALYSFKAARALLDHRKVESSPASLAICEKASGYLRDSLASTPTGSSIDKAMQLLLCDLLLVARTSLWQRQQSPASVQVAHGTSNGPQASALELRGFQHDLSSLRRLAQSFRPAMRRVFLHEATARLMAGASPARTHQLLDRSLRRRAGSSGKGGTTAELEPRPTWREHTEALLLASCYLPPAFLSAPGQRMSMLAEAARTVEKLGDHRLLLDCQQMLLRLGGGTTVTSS
PPARgamma2/RXRalpha heterodimer (Homo sapiens / Mus musculus), one chain, as listed by the source, chain 2 of 2: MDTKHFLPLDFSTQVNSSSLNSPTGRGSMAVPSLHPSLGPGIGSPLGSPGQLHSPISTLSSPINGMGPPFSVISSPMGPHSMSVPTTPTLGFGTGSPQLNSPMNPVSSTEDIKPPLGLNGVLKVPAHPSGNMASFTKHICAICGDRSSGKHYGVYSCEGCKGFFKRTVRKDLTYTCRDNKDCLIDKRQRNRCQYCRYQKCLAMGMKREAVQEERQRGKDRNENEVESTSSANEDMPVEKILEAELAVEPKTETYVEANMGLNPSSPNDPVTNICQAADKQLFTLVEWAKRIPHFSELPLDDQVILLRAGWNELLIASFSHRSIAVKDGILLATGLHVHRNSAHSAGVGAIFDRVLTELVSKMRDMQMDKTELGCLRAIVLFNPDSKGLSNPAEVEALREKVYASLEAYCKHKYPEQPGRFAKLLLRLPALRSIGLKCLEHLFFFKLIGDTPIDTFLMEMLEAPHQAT
PPARgamma2/RXRalpha heterodimer (Homo sapiens / Mus musculus), one chain, as listed by the source, chain 1 of 2: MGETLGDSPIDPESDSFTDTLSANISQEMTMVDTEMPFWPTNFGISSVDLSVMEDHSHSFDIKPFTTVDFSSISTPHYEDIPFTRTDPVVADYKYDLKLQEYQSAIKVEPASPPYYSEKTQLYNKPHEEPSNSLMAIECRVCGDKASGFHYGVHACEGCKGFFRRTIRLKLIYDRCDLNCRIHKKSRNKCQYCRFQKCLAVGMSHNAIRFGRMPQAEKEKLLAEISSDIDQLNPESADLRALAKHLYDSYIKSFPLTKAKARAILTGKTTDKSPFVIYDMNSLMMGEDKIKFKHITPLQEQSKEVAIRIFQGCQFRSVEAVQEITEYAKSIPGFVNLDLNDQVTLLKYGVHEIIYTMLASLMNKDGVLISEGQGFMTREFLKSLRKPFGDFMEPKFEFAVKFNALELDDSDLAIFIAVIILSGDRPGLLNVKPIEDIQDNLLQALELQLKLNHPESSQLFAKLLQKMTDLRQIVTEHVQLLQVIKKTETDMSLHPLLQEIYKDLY

ATTCATGCATCAT (double strand) [PPARgamma3 E-box mut (LF-106; core printed)]
activity on this sequence (ADD-1): not active
activity on this sequence (SREBP-1a (Mus musculus); variant of PPARgamma3 E-box (LF-102, core printed)): not active
binding result (ADD-1/SREBP-1 [1]): no binding
binding result (SREBP-1a (ADD-1/SREBP-1) [2]): no binding

ATTCATGTGACAT (double strand) [PPARgamma3 E-box (LF-102; core printed)]
binding result (ADD-1/SREBP-1 [3]): binds
binding result (SREBP-1a (ADD-1/SREBP-1) [4]): binds
activity on this sequence (SREBP-1a (Mus musculus)): active

GATCCCGAACGTGACCTTTGTCCTGGTCCC (double strand) [ACO PPRE]
binding result [5]: binds more weakly

GATCCGTCTGCCCTTTCCCCCTCTTCA (double strand) [LPL PPRE]
binding result [5]: binds more weakly
